No constants are given. Whether binding was seen depends on the method and setting. Some binding calls cover weakened binding; strength is not graded here. For some assays here: Tags and fused reporters may be left off the sequences shown.
T1: Human Claudin-7 (Cldn7), wild type, His-tagged (human), O95471
T1 chain: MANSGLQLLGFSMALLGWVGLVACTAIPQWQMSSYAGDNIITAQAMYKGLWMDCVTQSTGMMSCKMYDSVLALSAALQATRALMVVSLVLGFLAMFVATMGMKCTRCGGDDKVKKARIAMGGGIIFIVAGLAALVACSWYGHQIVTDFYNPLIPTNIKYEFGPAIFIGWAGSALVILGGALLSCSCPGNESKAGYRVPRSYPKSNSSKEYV


Key:
[1] = target: T1, Human Claudin-7 (Cldn7), wild type, …; test: precipitation at low NaCl (dialysis, centrifugation, SDS-PAGE densitometry); ~4 µM purified protein in DDM dialyzed against p-buffer with 0-300 mM NaCl, 20,000 g 1 min at RT; monomer band of supernatant and pellet quantified; wt and mutants compared at 0 and 300 mM NaCl; both purified; conditions: remark: other sources report otherwise
[2] = target: T1, Human Claudin-7 (Cldn7), wild type, …; test: atomic force microscopy of proteoliposomes (membrane stacks); purified protein reconstituted 1:400 into DOPC liposomes, spread on mica (p-buffer + 50 mM Mg2+), imaged in p-buffer; membrane stacks of multiples of 5 nm read as trans-interaction; also at different NaCl concentrations; both purified; conditions: remark: other sources report otherwise
[3] = target: T1, Human Claudin-7 (Cldn7), wild type, …; test: FRET between lipid-labelled proteoliposomes (membrane tethering); proteoliposomes with NBD-PE mixed with proteoliposomes with Liss-Rhod-PE, RT, samples over time; ratiometric FRET efficiency against liposomes without protein; both purified; conditions: remark: other sources report otherwise
[4] = target: Cldn7* (V70A, R81A, F148A, Y149A, E160A and F161A) (human) (UniProt O95471); test: atomic force microscopy of proteoliposomes (membrane stacks); purified protein reconstituted 1:400 into DOPC liposomes, spread on mica (p-buffer + 50 mM Mg2+), imaged in p-buffer; membrane stacks of multiples of 5 nm read as trans-interaction; also at different NaCl concentrations; both purified
[5] = target: Cldn7* (V70A, R81A, F148A, Y149A, E160A and F161A) (human) (UniProt O95471); test: FRET between lipid-labelled proteoliposomes (membrane tethering); proteoliposomes with NBD-PE mixed with proteoliposomes with Liss-Rhod-PE, RT, samples over time; ratiometric FRET efficiency against liposomes without protein; both purified

| binding [1] | binding [2] | binding [3] | binding [4] | binding [5] | Binder |
| --- | --- | --- | --- | --- | --- |
| binds | binds | binds | – | – | Human Claudin-7 (Cldn7), wild type, His-tagged, O95471 1-211 (natural protein) MANSGLQLLGFSMALLGWVGLVACTAIPQWQMSSYAGDNIITAQAMYKGLWMDCVTQSTGMMSCKMYDSVLALSAALQATRALMVVSLVLGFLAMFVATMGMKCTRCGGDDKVKKARIAMGGGIIFIVAGLAALVACSWYGHQIVTDFYNPLIPTNIKYEFGPAIFIGWAGSALVILGGALLSCSCPGNESKAGYRVPRSYPKSNSSKEYV |
| – | – | – | binds | binds | Cldn7* (V70A, R81A, F148A, Y149A, E160A and F161A) (protein, UniProt O95471 1-211) MANSGLQLLGFSMALLGWVGLVACTAIPQWQMSSYAGDNIITAQAMYKGLWMDCVTQSTGMMSCKMYDSALALSAALQATAALMVVSLVLGFLAMFVATMGMKCTRCGGDDKVKKARIAMGGGIIFIVAGLAALVACSWYGHQIVTDAANPLIPTNIKYAAGPAIFIGWAGSALVILGGALLSCSCPGNESKAGYRVPRSYPKSNSSKEYV |

Source: paper PMC9271825
